# Laboratory results as given in publication PMC5996148.
# Where “and” joins values, the source holds several entries; their conditions need not be identical. Identical values can stand only once. Some of the results follow. For some assays here: The exact form of the protein is not confirmed.
# Experiments:
# Assay in all cases: protein microarray (ProtoArray v5.0), streptavidin-Alexa Fluor 647
# Details in all cases: 3'-biotin; 20 mM Tris (pH 7.5), 5 mM MgCl2, 100 mM KCl, 0.1% Tween-20, A/T-rich and random oligonucleotide blockers; temperature not stated; high values mean tight binding
# FAM40B (human) = test system: FAM40B (human)
# FAM44B (human) = test system: FAM44B (human)
# FAM57A (human) = test system: FAM57A (human)
# FAM70B (human) = test system: FAM70B (human)
# FAM80A (human) = test system: FAM80A (human)
# FAM82C (human) = test system: FAM82C (human)
# FAM84A (human) = test system: FAM84A (human)
# FAM9C (human) = test system: FAM9C (human)
# FANCG (human) = test system: FANCG (human)
# FANCI (human) = test system: FANCI (human)
# FAU = FAU (UniProt P62861)
# FBP1 (human) = test system: FBP1 (human)
# FBXL16 = molecular target: T1, FBXL16 (UniProt Q8N461)
# T1 sequence: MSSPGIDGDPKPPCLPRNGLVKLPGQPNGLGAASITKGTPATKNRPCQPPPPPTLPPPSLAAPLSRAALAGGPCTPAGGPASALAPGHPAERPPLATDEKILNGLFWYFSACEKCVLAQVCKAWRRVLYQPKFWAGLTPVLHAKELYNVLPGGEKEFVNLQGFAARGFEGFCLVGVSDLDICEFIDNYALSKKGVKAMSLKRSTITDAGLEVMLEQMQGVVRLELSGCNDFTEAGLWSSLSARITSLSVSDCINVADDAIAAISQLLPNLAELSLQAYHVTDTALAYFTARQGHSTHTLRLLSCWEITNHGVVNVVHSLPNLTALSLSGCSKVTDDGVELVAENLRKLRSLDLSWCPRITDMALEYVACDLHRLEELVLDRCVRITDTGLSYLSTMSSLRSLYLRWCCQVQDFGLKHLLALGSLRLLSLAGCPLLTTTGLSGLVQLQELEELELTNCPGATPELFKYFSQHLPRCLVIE
# FBXL2 (human) = test system: FBXL2 (human)
# FBXO21 (human) = test system: FBXO21 (human)
# FBXO22 (human) = test system: FBXO22 (human)
# FBXO25 (human) = test system: FBXO25 (human)
# FBXO3 (human) = test system: FBXO3 (human)
# FBXO36 = molecular target: T2, FBXO36 (UniProt Q8NEA4)
# T2 sequence: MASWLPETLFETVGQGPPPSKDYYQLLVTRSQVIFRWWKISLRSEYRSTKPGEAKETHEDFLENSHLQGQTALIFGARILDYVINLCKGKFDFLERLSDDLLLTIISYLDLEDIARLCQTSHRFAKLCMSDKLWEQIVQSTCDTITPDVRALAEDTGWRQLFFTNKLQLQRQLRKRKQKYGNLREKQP
# FBXO38 (human) = test system: FBXO38 (human)
sequence,measurement,setting,value
GGGAGGCTGAGGCAGG [G4-1 biotinylated (PQS2)],binding signal,FAM40B (human),-0.267 z-score
same,binding signal,FAM44B (human),-0.374 z-score
same,binding signal,FAM57A (human),-0.248 z-score
same,binding signal,FAM70B (human),-0.316 z-score
same,binding signal,FAM80A (human),-0.331 z-score
same,binding signal,FAM82C (human),-0.343 z-score
same,binding signal,FAM84A (human),-0.316 z-score
same,binding signal,FAM9C (human),-0.333 z-score
same,binding signal,FANCG (human),-0.347 z-score
same,binding signal,FANCI (human),-0.356 z-score
same,binding signal,FAU,6.01 z-score
same,binding signal,FBP1 (human),-0.347 z-score
same,binding signal,FBXL16,-0.272 z-score and -0.338 z-score
same,binding signal,FBXL2 (human),-0.323 z-score
same,binding signal,FBXO21 (human),-0.308 z-score
same,binding signal,FBXO22 (human),-0.314 z-score
same,binding signal,FBXO25 (human),-0.297 z-score
same,binding signal,FBXO3 (human),-0.286 z-score
same,binding signal,FBXO36,-0.316 z-score
same,binding signal,FBXO38 (human),-0.322 z-score
